Measurements as given in patent US7632918B2, “Semi-synthetic glycopeptides with antibiotic activity” (Novartis Vaccines and Diagnostics, Inc., priority 2005, dated 2009).
Values after ≈ are worked out from the molar mass of the structure shown.

How the values were obtained:
Test in all cases: MIC, broth microdilution in Meuller-Hinton broth (NCCLS)
[1] = test system: 3797 S. aureus (GISA); type: cell-based, Staphylococus aureus; conditions: glycopeptides-intermediate clinical isolate
Procedure: (§1) Antibacterial activity in vitro was investigated by broth microdilution method in Meuller-Hinton broth as recommended by NCCLS. All strains tested were clinical isolates either sensitive or resistant to natural glycopeptides. Results are reported in the tables as MIC (minimal inhibitory concentration) in μg/ml.
(§2) The glycopeptides were tested against a variety of strains, indicated below, including Staphylococus epidermidis, Staphylococus haemolyticus, glycopeptides-intermediate Staphylococus aureus (GISA), glocopeptide-sensitive Enterococcus faecalis (GSE), and glocopeptide-resistant Enterococcus faecalis (GRE). Results are shown in the table as minimum inhibitory concentration (MIC) in units of μg/ml: […]

[2] = test system: 3798 S. aureus (GISA); type: cell-based, Staphylococus aureus; conditions: glycopeptides-intermediate clinical isolate
Procedure: as §1, §2

[3] = test system: 533 S. epidermidis; type: cell-based, Staphylococus epidermidis; conditions: clinical isolate
Procedure: as §1, §2

[4] = test system: 559 E. faecalis (GSE); type: cell-based, Enterococcus faecalis; conditions: glycopeptide-sensitive clinical isolate
Procedure: as §1, §2

[5] = test system: 560 E. faecalis (GRE); type: cell-based, Enterococcus faecalis; conditions: glycopeptide-resistant clinical isolate
Procedure: as §1, §2

[6] = test system: 568 E. faecium (GSE); type: cell-based; conditions: glycopeptide-sensitive clinical isolate
Procedure: as §1, §2

[7] = test system: 569 E. faecium (GRE); type: cell-based; conditions: glycopeptide-resistant clinical isolate
Procedure: as §1, §2

[8] = test system: 602 S. haemolyticus; type: cell-based, Staphylococus haemolyticus; conditions: clinical isolate
Procedure: as §1, §2

CCCCCCCCOc1ccc(CNCC(=O)NC2(C)CC(OC3C(Oc4c5cc6cc4Oc4ccc(cc4Cl)C(O)C4NC(=O)C(NC(=O)C6NC(=O)C(CC(N)=O)NC(=O)C(NC(=O)C(CC(C)C)NC)C(O)c6ccc(c(Cl)c6)O5)c5ccc(O)c(c5)-c5c(O)cc(O)cc5C(C(=O)O)NC4=O)OC(CO)C(O)C3O)OC(C)C2O)cc1 (centres unmarked) [Compound 220, N′-p-C8H17OBnHNCH2CO vancomycin]
MIC 3797 S. aureus (GISA) [1]: 2 µg/mL (≈ 1.16 µM) | MIC 3798 S. aureus (GISA) [2]: 2 µg/mL (≈ 1.16 µM) | MIC 533 S. epidermidis [3]: 0.5 µg/mL (≈ 0.29 µM) | MIC 559 E. faecalis (GSE) [4]: 0.25 µg/mL (≈ 0.145 µM) | MIC 560 E. faecalis (GRE) [5]: 4 µg/mL (≈ 2.32 µM) | MIC 568 E. faecium (GSE) [6]: 0.25 µg/mL (≈ 0.145 µM) | MIC 569 E. faecium (GRE) [7]: 2 µg/mL (≈ 1.16 µM) | MIC 602 S. haemolyticus [8]: 1 µg/mL (≈ 0.58 µM)
